These are yes or no findings as the source states them, for the method shown. In cells and extracts the contact can be indirect. Some binding calls cover weakened binding; strength is not graded here.
Columns and labels:
[1] = target: mouse PPARγ2, wild type, overexpressed in HEK293T cells (mouse) (UniProt P37238); experiment: co-IP; HEK293T cells co-transfected with PPARγ2 and the partner gene (pcDNA3.1(-)), lysed after 24 h; IP with 0.5 μg anti-Flag overnight at 4 °C, Protein A + G agarose; washed 7 times in 150 mM NaCl, 1 mM EDTA, 20 mM Tris, 1% Triton X-100, pH 8.0; cells treated with PMA (100 nM) and Ro (2 μM), RSG (1 μM) or CDDO (100 nM)
[2] = target: endogenous PPARγ T166A in SVF-differentiated primary adipocytes of homozygous TA knock-in mice (mouse (endogenous in SVF-differentiated primary adipocytes)) (UniProt P37238); experiment: co-IP; mature SVF-differentiated primary adipocytes of homozygous WT, TA and TD mice, lysed; IP of endogenous PPARγ with 2 μg mouse anti-PPARγ (Santa Cruz, sc-7273)
[3] = target: endogenous PPARγ, wild type, in SVF-differentiated primary adipocytes of homozygous WT mice (mouse (endogenous in SVF-differentiated primary adipocytes)) (UniProt P37238); experiment: as above

Row | binding [1] | binding [2] | binding [3] | Molecule
1 | binds |  |  | mouse PKCα, exogenous, in HEK293T cells (from UniProt P20444 1-672) (enzyme)
2 |  | binds | binds | endogenous PGC1α in mouse SVF-differentiated primary adipocytes (protein, UniProt O70343 1-797) MAWDMCSQDSVWSDIECAALVGEDQPLCPDLPELDLSELDVNDLDTDSFLGGLKWCSDQSEIISNQYNNEPANIFEKIDEENEANLLAVLTETLDSLPVDEDGLPSFDALTDGAVTTDNEASPSSMPDGTPPPQEAEEPSLLKKLLLAPANTQLSYNECSGLSTQNHAANHTHRIRTNPAIVKTENSWSNKAKSICQQQKPQRRPCSELLKYLTTNDDPPHTKPTENRNSSRDKCASKKKSHTQPQSQHAQAKPTTLSLPLTPESPNDPKGSPFENKTIERTLSVELSGTAGLTPPTTPPHKANQDNPFKASPKLKPSCKTVVPPPTKRARYSECSGTQGSHSTKKGPEQSELYAQLSKSSGLSRGHEERKTKRPSLRLFGDHDYCQSLNSKTDILINISQELQDSRQLDFKDASCDWQGHICSSTDSGQCYLRETLEASKQVSPCSTRKQLQDQEIRAELNKHFGHPCQAVFDDKSDKTSELRDGDFSNEQFSKLPVFINSGLAMDGLFDDSEDESDKLSYPWDGTQPYSLFDVSPSCSSFNSPCRDSVSPPKSLFSQRPQRMRSRSRSFSRHRSCSRSPYSRSRSRSPGSRSSSRSCYYYESSHYRHRTHRNSPLYVRSRSRSPYSRRPRYDSYEAYEHERLKRDEYRKEHEKRESERAKQRERQKQKAIEERRVIYVGKIRPDTTRTELRDRFEVFGEIEECTVNLRDDGDSYGFITYRYTCDAFAALENGYTLRRSNETDFELYFCGRKQFFKSNYADLDTNSDDFDPASTKSKYDSLDFDSLLKEAQRSLRR

Source: publication PMC9984430
